Measurements reported in PubChem BioAssay AID1224830 (NIAID, 2016)

Screen: 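Regulators of TLR4 signalling towards TNF-alpha in macrophage-like cells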 (primary screen)
Cells: human THP-1 monocytic leukaemia cells, TNF dual-luciferase reporter clone, PMA-differentiated to macrophage-like cells
Reagent: siRNA pool against human genes, 50 nM
Timing: LPS for 4 h, given about 3 days after siRNA transfection
Treatment: bacterial LPS (TLR4 ligand), 10 ng/ml
Detection: 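TNF firefly reporter luminescence divided by renilla, normalised to the plate median, then turned into a robust z-score for each replicate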
Scale: TNF reporter robust z-score: higher = stronger TNF reporter response to LPS
Rule for the call: 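Each well counts as active if its z-score is over 2.8 or under -1.5; controls are left without a call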
The deposit covers about 18,000 reagents; this is a part drawn at random. About 2,900 of all reagents (16%) were called active. 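Calls are made per well; low scores hint the gene aids the LPS response, high scores that it dampens it.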 Unmarked entries are inactive. Repeated entries: four replicate wells of each siRNA pool.

{"target gene": "SERPINA4 (GeneID 5267)", "TNF reporter robust z-score": -1.13}
{"target gene": "SERPINA4 (GeneID 5267)", "TNF reporter robust z-score": "-1.79 (active)"}
{"target gene": "SERPINA4 (GeneID 5267)", "TNF reporter robust z-score": "-1.98 (active)"}
{"target gene": "SERPINA4 (GeneID 5267)", "TNF reporter robust z-score": "-1.84 (active)"}
{"target gene": "FOXQ1 (GeneID 94234)", "TNF reporter robust z-score": 0.2}
{"target gene": "FOXQ1 (GeneID 94234)", "TNF reporter robust z-score": 0.18}
{"target gene": "FOXQ1 (GeneID 94234)", "TNF reporter robust z-score": -0.81}
{"target gene": "FOXQ1 (GeneID 94234)", "TNF reporter robust z-score": 0.62}
{"target gene": "WDR18 (GeneID 57418)", "TNF reporter robust z-score": -0.91}
{"target gene": "WDR18 (GeneID 57418)", "TNF reporter robust z-score": -1.48}
{"target gene": "WDR18 (GeneID 57418)", "TNF reporter robust z-score": -1.06}
{"target gene": "WDR18 (GeneID 57418)", "TNF reporter robust z-score": 2.69}

Next part (2 carried over from the part before).
{"target gene": "WDR18 (GeneID 57418)", "TNF reporter robust z-score": -1.06}
{"target gene": "WDR18 (GeneID 57418)", "TNF reporter robust z-score": 2.69}
{"target gene": "SMPX (GeneID 23676)", "TNF reporter robust z-score": -0.49}
{"target gene": "SMPX (GeneID 23676)", "TNF reporter robust z-score": 0.55}
{"target gene": "SMPX (GeneID 23676)", "TNF reporter robust z-score": 0.48}
{"target gene": "SMPX (GeneID 23676)", "TNF reporter robust z-score": -0.05}
{"target gene": "DNMT1 (GeneID 1786)", "TNF reporter robust z-score": 0.39}
{"target gene": "DNMT1 (GeneID 1786)", "TNF reporter robust z-score": -0.91}
{"target gene": "DNMT1 (GeneID 1786)", "TNF reporter robust z-score": -0.26}
{"target gene": "DNMT1 (GeneID 1786)", "TNF reporter robust z-score": 0.65}
{"target gene": "TCF3 (GeneID 6929)", "TNF reporter robust z-score": -1.46}
{"target gene": "TCF3 (GeneID 6929)", "TNF reporter robust z-score": -1.05}
{"target gene": "TCF3 (GeneID 6929)", "TNF reporter robust z-score": 0.57}
{"target gene": "TCF3 (GeneID 6929)", "TNF reporter robust z-score": 0.21}
{"target gene": "DNAAF3 (GeneID 352909)", "TNF reporter robust z-score": "-1.91 (active)"}
{"target gene": "DNAAF3 (GeneID 352909)", "TNF reporter robust z-score": "-1.82 (active)"}
{"target gene": "DNAAF3 (GeneID 352909)", "TNF reporter robust z-score": "-1.96 (active)"}
{"target gene": "DNAAF3 (GeneID 352909)", "TNF reporter robust z-score": "-1.62 (active)"}
{"target gene": "FOXM1 (GeneID 2305)", "TNF reporter robust z-score": 0.06}
{"target gene": "FOXM1 (GeneID 2305)", "TNF reporter robust z-score": 0.24}
{"target gene": "FOXM1 (GeneID 2305)", "TNF reporter robust z-score": -1.13}
{"target gene": "FOXM1 (GeneID 2305)", "TNF reporter robust z-score": -0.48}
